We go through one molecule from article PMC8660775.

Results are given in words; binding and its absence hold for the method and conditions named. In cells and extracts the contact can be indirect. Some entries that bind do so weakly or less than the wild type.

This assay concerns the target T1, Adiponectin receptor 1 (ADIPOR1), endogenous in iPSC-derived RPE (human (endogenous in iPSC-derived RPE)) (UniProt Q96A54).
T1 sequence: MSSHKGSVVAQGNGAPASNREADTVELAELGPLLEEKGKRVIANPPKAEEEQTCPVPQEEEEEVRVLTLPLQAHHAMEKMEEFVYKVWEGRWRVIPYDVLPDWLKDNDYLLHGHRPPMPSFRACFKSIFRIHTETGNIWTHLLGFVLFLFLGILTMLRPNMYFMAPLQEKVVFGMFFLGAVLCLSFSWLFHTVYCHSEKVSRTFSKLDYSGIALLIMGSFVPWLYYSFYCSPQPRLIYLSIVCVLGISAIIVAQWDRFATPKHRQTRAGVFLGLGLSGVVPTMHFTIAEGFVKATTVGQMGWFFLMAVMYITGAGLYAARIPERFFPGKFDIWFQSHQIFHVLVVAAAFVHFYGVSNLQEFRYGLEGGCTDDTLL
Briefly: co-IP; plasma membrane preps of iRPE (9 million cells) resuspended in TBST (PBS + 0.5% Triton); anti-AdipoR1 (Santa Cruz D-9, 10 ug) on Dynabeads protein G; CTRP5 detected by Western blot; controls: matching isotype IgG and beads only. (In general: In western blotting, separated proteins are transferred to a membrane and probed.)

B1: CTRP5 (C1q/TNF-related protein 5), endogenous in iPSC-derived RPE (ligand, UniProt Q9BXJ0 16-243)
chain: SPPLDDNKIPSLCPGHPGLPGTPGHHGSQGLPGRDGRDGRDGAPGAPGEKGEGGRPGLPGPRGDPGPRGEAGPAGPTGPAGECSVPPRSAFSAKRSESRVPPPSDAPLPFDRVLVNEQGHYDAVTGKFTCQVPGVYYFAVHATVYRASLQFDLVKNGESIASFFQFFGGWPKPASLSGGAMVRLEPEDQVWVQVGVGDYIGIYASIKTDSTFSGFLVYSDWHSSPVFA
Consider B1, for which the binding entry was “binds”.
